Values of other authors in US8569335B2, “Compounds derived from taurine, process of their preparation and pharmaceutical compositions containing these” (EMS S.A., priority 2008, dated 2013).

Settings: oral administration; literature (Merck Index); cited from earlier work

Compound: COc1ccc2cc([C@H](C)C(=O)O)ccc2c1 [naproxen, reference compound]
- LD50: 1,234 mg/Kg
